Results as given in patent US20080181940A1, “Method For Accelerating Expression of CPT-1” (Amorepacific Corporation, priority 2003, published 2008).

test system: obesity induced by high fat diet; experiment: Body weight and food consumption of rats on high fat diet, 8 weeks of dieting; assay type: in vivo, Sprague-Dawley white male rat; conditions: high fat diet + 0.2% of each substance in diet, n = 12
Description: In order to verify the effects of the present composition to the metabolism of lipid in the fat animals induced by dieting high fat diet, Sprague-Dawley white male rat model was selected. In order to verify the effects of genistein, diadzein and glycitein to the obesity induced from high fat diet, rats of 6 weeks old were adapted for a week and assigned 12 rats for each experimental group. Experimental groups are as follows: (1) normal fat diet; (2) high fat diet; (3) high fat diet+genistein 0.2%; (4) high fat diet+L-carnitine 0.2%; (5) high fat diet+genistein 0.2%+L-carnitine 0.2%; (6) high fat diet+diadzein 0.2%; (7) high fat diet+diadzein 0.2%+L-carnitine 0.2%; (8) high fat diet+glycitein 0.2%; and (9) high fat diet+glycitein 0.2%+L-carnitine 0.2%, and the rats were […] for 8 weeks. […] The amount of diet consumed and body weight was measure three times per week during dieting.

SMILES | Amount of food consumed
C[N+](C)(C)CC(O)CC(=O)[O-] [L-carnitine, β-hydroxy-γ-trimethylammonium butyric acid] | 25.7 ± 9.1 g/day
O=c1c(-c2ccc(O)cc2)coc2cc(O)ccc12 [diadzein] | 26.8 ± 4.1 g/day
O=c1c(-c2ccc(O)cc2)coc2cc(O)cc(O)c12 [genistein] | 26.5 ± 3.8 g/day
COc1cc2c(=O)c(-c3ccc(O)cc3)coc2cc1O [glycitein] | 26.7 ± 4.7 g/day
